Results are given in words; binding and its absence hold for the method and conditions named. In cells and extracts the contact can be indirect. A result given as binding can be weak or reduced; the word gives no strength.
Experiments:
[1] = target: Flag-tagged soluble TRAIL (tumor necrosis factor-related apoptosis-inducing ligand) (UniProt P50591); assay: co-IP; TRAIL DISC analysis in OVCAR3 sublines (Ctrl scFv and MUC16 scFv knockdown): cells stimulated with 1 ug/ml Flag-tagged TRAIL pre-incubated with 3 ug/ml anti-Flag M2 for 30 or 60 min, lysed in 30 mM Tris-HCl, 150 mM NaCl, 1% Triton, DISC precipitated with protein G agarose overnight at 4°C, immunoblot; only the target purified
[2] = target: Flag-tagged soluble TRAIL (tumor necrosis factor-related apoptosis-inducing ligand) (UniProt P50591); assay: co-IP; TRAIL DISC analysis in SKOV3 cells (empty vector and MUC16CTD): cells stimulated with 2 ug/ml Flag-tagged TRAIL pre-incubated with 3 ug/ml anti-Flag M2 for 30 or 60 min, lysed in 30 mM Tris-HCl, 150 mM NaCl, 1% Triton, DISC precipitated with protein G agarose overnight at 4°C, immunoblot; only the target purified

Amino acid sequences for entries named in this document (tags omitted). A change or cut given only in a name is not applied to a line headed by its entry.
UniProt P50591: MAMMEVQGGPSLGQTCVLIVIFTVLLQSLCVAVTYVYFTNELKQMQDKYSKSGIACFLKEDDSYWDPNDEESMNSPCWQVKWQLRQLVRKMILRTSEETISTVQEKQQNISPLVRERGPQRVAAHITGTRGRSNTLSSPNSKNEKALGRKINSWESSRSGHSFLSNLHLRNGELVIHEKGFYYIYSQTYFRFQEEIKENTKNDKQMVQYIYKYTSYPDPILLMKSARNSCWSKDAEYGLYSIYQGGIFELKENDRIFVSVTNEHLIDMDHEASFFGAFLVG
UniProt Q14790: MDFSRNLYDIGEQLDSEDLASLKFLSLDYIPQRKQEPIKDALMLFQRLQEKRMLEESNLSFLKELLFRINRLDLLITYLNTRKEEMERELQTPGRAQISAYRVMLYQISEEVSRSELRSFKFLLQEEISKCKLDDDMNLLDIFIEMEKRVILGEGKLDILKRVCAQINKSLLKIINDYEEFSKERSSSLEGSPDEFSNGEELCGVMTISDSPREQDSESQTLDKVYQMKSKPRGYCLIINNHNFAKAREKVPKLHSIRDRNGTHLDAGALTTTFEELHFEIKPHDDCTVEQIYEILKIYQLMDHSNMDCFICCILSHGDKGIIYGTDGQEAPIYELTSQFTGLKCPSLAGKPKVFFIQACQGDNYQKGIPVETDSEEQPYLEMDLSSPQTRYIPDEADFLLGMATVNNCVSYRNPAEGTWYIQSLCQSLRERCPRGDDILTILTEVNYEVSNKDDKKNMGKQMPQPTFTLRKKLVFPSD

For “caspase-8 (pro-caspase-8 and its p43/41 fragments) (from UniProt Q14790 1-479) (enzyme)”, which binding [1] is on record?
The binding was “binds”.

What about the binding [2] of the same substance?
Its binding is “binds”.

Source: PMC4234371
